# According to publication PMC8121154, “The effects of pH and NaCl concentration on the structure of β‐casein from buffalo milk” (Food Science & Nutrition, 2021):
# No constants are given. Whether binding was seen depends on the method and setting.
# What was measured:
# [1] = target: native β‐casein purified from buffalo milk (buffalo (purified from buffalo milk)) (UniProt Q9TSI0); assay: dynamic light scattering; purified β‐CN in 10 mM sodium phosphate buffer at its natural pH (series pH 5-7.5), room temperature; particle size distribution about 10 nm; both purified
# [2] = target: native β‐casein purified from buffalo milk (buffalo (purified from buffalo milk)) (UniProt Q9TSI0); assay: dynamic light scattering; purified β‐CN in 10 mM sodium phosphate buffer pH 7.0 with 0.1 to 0.3 M NaCl, room temperature; both purified
# [3] = target: native β‐casein purified from buffalo milk (buffalo (purified from buffalo milk)) (UniProt Q9TSI0); assay: dynamic light scattering; purified β‐CN in 10 mM sodium phosphate buffer pH 7.0 with 10 mM NaCl, room temperature; particle size distribution 10 nm; both purified
binder,measurement,setting,value
"native β‐casein purified from buffalo milk (natural protein, buffalo (purified from buffalo milk), UniProt Q9TSI0 16-224, looked up, β‐casein of buffalo milk (water buffalo), native protein purified from milk; single band of approximately 25 kDa on SDS-PAGE; Native milk protein; also called β‐CN; buffalo β‐CN) RELEELNVPGEIVESLSSSEESITHINKKIEKFQSEEQQQMEDELQDKIHPFAQTQSLVYPFPGPIPKSLPQNIPPLTQTPVVVPPFLQPEIMGVSKVKEAMAPKHKEMPFPKYPVEPFTESQSLTLTDVENLHLPLPLLQSWMHQPPQPLPPTVMFPPQSVLSLSQSKVLPVPQKAVPYPQRDMPIQAFLLYQEPVLGPVRGPFPIIV",binding,[1],no binding (condition: at its natural pH)
same,binding,[2],"no binding (condition: with 0.1 to 0.3 M NaCl, pH 7.0)"
same,binding,[3],"no binding (condition: in 10 mM NaCl, pH 7.0)"
